{"source": "PubChem BioAssay AID540256", "about": "(National Center for Advancing Translational Sciences (NCATS), 2011)", "note": "The campaign covered roughly 300,000 compounds. About 3,700 (1.2%) were called active. This list was built around the results that the source calls inconclusive (neither active nor inactive); the mix of calls is not that of the screen. Calls come from the whole dose curve; tested in HEK293 cells. Potencies of inconclusive entries are doubtful fits and often do not repeat. Potency is the fitted concentration of half-maximal effect."}
{"assay": "qHTS for Inhibitors of binding or entry into cells for Lassa Virus; note: nearly all actives have a fitted effect of over 50% in size", "settings": "Lassa virus pseudotype entry inhibition, cell reporter; series mostly up to 37.9 µM"}
{"smiles": "COc1ccc(OC)c(NC(=O)Cc2c(C(=O)O)n(C)c3ccc(C)cc23)c1", "Potency": "inconclusive: 35.5 µM [activator, single point]"}
{"smiles": "COc1ccc(Cl)cc1NS(=O)(=O)c1cccc(C(=O)NCC(c2ccco2)N2CCCC2)c1", "note": "(stereo not given)", "Potency": "inconclusive: 1.12 µM [activator, partial curve, poor fit]"}
{"smiles": "COc1ccc2nc(-c3ccccc3)[nH]c2c1", "Potency": "inconclusive: 8.2 µM [inhibitor, partial curve, poor fit]"}
{"smiles": "Cc1ccc(CN=C2Nc3ccccc3CS2)cc1", "Potency": "inconclusive: 18.3 µM [inhibitor, single point]"}
{"smiles": "CC(=O)Nc1ccc(/C(C)=N/NS(=O)(=O)c2ccc(C)cc2)cc1", "Potency": "inactive"}
{"smiles": "O=C1c2[nH]nc(-c3ccccc3O)c2C(c2ccc(F)cc2)N1CCO", "note": "(stereo not given)", "Potency": "inconclusive: 0.891 µM [inhibitor, full curve, poor fit]"}
{"smiles": "COc1cc(CNCCCN2CCOCC2)ccc1OCC(=O)Nc1cccc(C(F)(F)F)c1", "Potency": "inconclusive: 18.3 µM [inhibitor, single point]"}
{"smiles": "O=C(Nc1cc(Br)ccc1O)c1cnn2c(C(F)F)cc(C3CC3)nc12", "Potency": "inconclusive: 7.94 µM [activator, partial curve, poor fit]"}
{"smiles": "Cc1ccc2cc(CN(Cc3ccc4c(c3)OCO4)Cc3nnnn3Cc3ccco3)c(=O)[nH]c2c1C", "Potency": "inconclusive: 11.2 µM [inhibitor, partial curve]"}
{"smiles": "Cc1c(C(=O)O)sc(S(=O)(=O)N2CCN(C(=O)Cc3ccccc3)CC2)c1C(=O)O", "Potency": "inconclusive: 35.5 µM [activator, single point]"}
{"smiles": "Cc1ccc(-n2c(SCC(=O)NCC3CCCO3)nc3n[nH]c(C)c3c2=N)cc1Cl", "note": "(stereo not given)", "Potency": "inconclusive: 3.55 µM [inhibitor, partial curve, poor fit]"}
{"smiles": "COc1ccc(NC(=O)CSc2nccn2Cc2ccco2)c(OC)c1", "Potency": "inconclusive: 7.94 µM [activator, partial curve, poor fit]"}
{"smiles": "Cc1nc(N2CCOCC2)c2c(C)c(C(=O)Nc3ccc(C(F)(F)F)cc3)sc2n1", "Potency": "active: 2.24 µM"}
{"smiles": "O=C(CCCOc1ccccc1)N1CCN(C(=O)c2ccco2)CC1", "Potency": "inactive"}
{"smiles": "COc1ccc(OCC(=O)Nc2ccc(NC(=O)c3ccco3)c(C)c2)cc1", "Potency": "inconclusive: 3.98 µM [inhibitor, full curve]"}
{"smiles": "O=C(N/N=C/c1ccccn1)c1ccco1", "Potency": "inactive"}
{"smiles": "CCOC(=O)N1CCc2[nH]c3ccc(C)cc3c2C1", "Potency": "inconclusive: 4.47 µM [inhibitor, partial curve]"}
{"smiles": "c1ccc(-n2ncc3c2ncn2nc(-c4ccco4)nc32)cc1", "Potency": "inconclusive: 2.31 µM [activator, single point]"}
{"smiles": "O=C(NCc1ccco1)c1ccc(CN2CCOCC2)cc1", "Potency": "inconclusive: 23.1 µM [activator, single point]"}
{"smiles": "COc1cccc(C(C(=O)NC(C)(C)C)N(Cc2ccc(C)cc2)C(=O)CCC(=O)Nc2cc(C)on2)c1OC", "note": "(stereo not given)", "Potency": "inconclusive: 35.5 µM [inhibitor, single point]"}
{"smiles": "O=C(Cn1c(=O)n(Cc2ccccc2)c(=O)c2sc3ccccc3c21)NCc1ccccc1Cl", "Potency": "inconclusive: 6.31 µM [inhibitor, single point]"}
{"smiles": "O=C(NC1CC(=O)N(c2cccc(F)c2)C1)c1ccc(S(=O)(=O)N2CCCC2)cc1", "note": "(stereo not given)", "Potency": "inactive"}
{"smiles": "O=C(COc1coc(CN2CCN(c3ccc(F)cc3)CC2)cc1=O)NCC1CCCO1", "note": "(stereo not given)", "Potency": "inconclusive: 35.5 µM [inhibitor, partial curve, poor fit]"}
{"smiles": "O=C(c1ccc(F)cc1)c1ccc(N2CCCC2)cc1", "Potency": "inconclusive: 35.5 µM [inhibitor, single point]"}
{"smiles": "CCOC(=O)CSC1=N/C(=C/c2ccc(-n3cncn3)cc2)C(=O)N1C(C)=O", "Potency": "inconclusive: 2.82 µM [inhibitor, full curve, poor fit]"}
{"smiles": "O=S(=O)(NCCC1=CCCCC1)c1ccccc1Br", "Potency": "inconclusive: 0.282 µM [activator, partial curve, poor fit]"}
{"smiles": "CC(C)CS(=O)(=O)c1oc(-c2ccc(F)cc2)nc1S(=O)(=O)c1ccccc1", "Potency": "inconclusive: 8.91 µM [inhibitor, partial curve, poor fit]"}
{"smiles": "COc1ccc(OC)c(C(c2nnnn2C(C)(C)C)N2CCc3ccccc3C2)c1", "note": "(stereo not given)", "Potency": "inconclusive: 35.5 µM [inhibitor, single point]"}
{"smiles": "O=[N+]([O-])c1cc(C(F)(F)F)ccc1N1CCN(S(=O)(=O)c2ccc3ccccc3c2)CC1", "Potency": "inactive"}
{"smiles": "C=Cc1cc(OC)c2c(c1)c(=O)oc1c2cc(OC)c2c(O)ccc(C3OC(C)C(O)C(C)(O)C3O)c21", "note": "(stereo not given)", "Potency": "active: 0.398 µM"}
{"smiles": "CCCS(=O)(=O)c1c(S(=O)(=O)CCC)c2cc(CC)ccn2c1C(=O)c1ccc(OC)cc1", "Potency": "inactive"}
{"smiles": "O=C(Nc1ccc(Cl)cc1)C1CCCN(c2ncnc3c2nc2n3CCCCC2)C1", "note": "(stereo not given)", "Potency": "inconclusive: 35.5 µM [inhibitor, single point]"}
{"smiles": "O=C(N/N=C\\c1c(O)ccc2ccccc12)c1ccc(Cn2cccn2)o1", "Potency": "active: 13 µM"}
{"smiles": "CCN(CC)c1nc2c3c(nc4c(c3c1C#N)CC(=O)N4c1ccc(Cl)cc1)NC(C)=N2", "Potency": "inactive"}
{"smiles": "COc1cccc(Cn2c(Oc3ccccc3)nc3c2c(=O)n(C)c(=O)n3C)c1", "Potency": "inconclusive: 7.3 µM [inhibitor, partial curve, poor fit]"}
{"smiles": "Cc1cccc(NC(=S)N(Cc2ccco2)C(C)c2cccs2)c1", "note": "(stereo not given)", "Potency": "inconclusive: 12.6 µM [inhibitor, single point]"}
{"smiles": "Cc1cc(C(=O)COC(=O)c2cc(Cl)ccc2N)c(C)n1Cc1ccco1", "Potency": "inconclusive: 0.631 µM [inhibitor, single point]"}
{"smiles": "Cc1cc(NC(=O)CCC(=O)N(CC(=O)NC2CCCC2)c2ccc(Cl)c(Cl)c2)no1", "Potency": "inactive"}
{"smiles": "CCOc1ccccc1NC(=O)c1c(NC(=O)COc2ccccc2)sc2c1CCCCC2", "Potency": "inactive"}
{"smiles": "CC(C)CN1CCNC(=O)C1CC(=O)NCCc1ccc(C(F)(F)F)cc1", "note": "(stereo not given)", "Potency": "inactive"}
{"smiles": "Cc1ccc(N2NC(=O)/C(=C/C=C/c3ccco3)C2=O)cc1C", "Potency": "inconclusive: 7.08 µM [inhibitor, partial curve, poor fit]"}
{"smiles": "Nc1ccc(N=Nc2ccccc2)cc1", "Potency": "inconclusive: 10 µM [inhibitor, partial curve, poor fit]"}
{"smiles": "CCOC(=O)Cc1csc(NC(=O)c2ccc([N+](=O)[O-])cc2[N+](=O)[O-])n1", "Potency": "inconclusive: 28.2 µM [inhibitor, single point]"}
{"smiles": "Cc1cc2nc3c(nc2cc1C)C1(C(=O)N(C)C)CCC3(C)C1(C)C", "note": "(stereo not given)", "Potency": "inconclusive: 0.461 µM [inhibitor, single point]"}
{"smiles": "C=C(C)CNC(=S)N=Nc1c(O)[nH]c2ccc([N+](=O)[O-])cc12", "Potency": "inactive"}
{"smiles": "NC(=O)c1ccccc1NCC(=O)c1ccc(F)cc1", "Potency": "inactive"}
{"smiles": "Cc1ccc2[nH]c(=O)c(CN(Cc3ccco3)C(=O)c3ccncc3)cc2c1", "Potency": "inconclusive: 4.61 µM [inhibitor, full curve, poor fit]"}
{"smiles": "O=C(N/N=C/c1ccc(Br)s1)c1ccncc1", "Potency": "inconclusive: 15.8 µM [inhibitor, single point]"}
{"smiles": "Nc1c(C(=O)Nc2ccc(Cl)cc2)sc2nc3c(cc12)N1CCC3CC1", "Potency": "inconclusive: 35.5 µM [inhibitor, single point]"}
{"smiles": "CC(=O)N(C)c1ccc(NC(=O)COc2ccc(Br)cc2C)cc1", "Potency": "inconclusive: 29.1 µM [inhibitor, single point]"}
{"smiles": "COCCCNC(=O)CS(=O)Cc1nc(-c2cccc(C)c2)oc1C", "note": "(stereo not given)", "Potency": "inconclusive: 14.1 µM [activator, single point]"}
{"smiles": "COc1ccc(N2CCN(C(=O)C3CCCN(S(=O)(=O)c4ccc5c(c4)CCCN5C(C)=O)C3)CC2)cc1", "note": "(stereo not given)", "Potency": "inconclusive: 15.8 µM [inhibitor, single point]"}
{"smiles": "CCc1c(C(=O)NNC(=S)NCCc2ccccc2)csc1C", "Potency": "inconclusive: 0.316 µM [activator, partial curve, poor fit]"}
{"smiles": "CCC(C)c1ccc(NC(=O)N2CCN(C(=O)C3CCCO3)CC2)cc1", "note": "(stereo not given)", "Potency": "inactive"}
{"smiles": "O=C(OCC1CC(c2ccccc2)=NO1)c1ccc(Br)cc1", "note": "(stereo not given)", "Potency": "inactive"}
{"smiles": "Cc1ccc(S(=O)(=O)N(CC(=O)N2CCOCC2)c2ccccc2F)cc1", "Potency": "inconclusive: 3.16 µM [inhibitor, full curve, poor fit]"}
{"smiles": "C/C(CCC(=O)OC[C@H]1O[C@H](C#Cc2ccccc2)C=C[C@@H]1Oc1ccc(C)cc1)=N\\OC[C@@H](O)[C@H]1O[C@@H]2OC(C)(C)O[C@@H]2[C@H]1O", "Potency": "inconclusive: 29.1 µM [inhibitor, single point]"}
{"smiles": "CC(=O)OCC(=O)Nc1c(C)cc(C)cc1C", "Potency": "inactive"}
{"smiles": "CSc1ccc(CCNC(=O)c2cnn(-c3ccccc3)c2-n2cccc2)cc1", "Potency": "inconclusive: 11.2 µM [inhibitor, partial curve]"}
{"smiles": "CC1(C)CC(=O)C(C=Nc2cccnc2/N=C/C2=C(O)CC(C)(C)CC2=O)=C(O)C1", "Potency": "inactive"}
{"smiles": "COc1cccc(OCc2cc(C(=O)N3CCNC(=O)C3Cc3ccccc3)no2)c1", "note": "(stereo not given)", "Potency": "inactive"}
{"smiles": "O=C(NC(=S)NCCCN1CCOCC1)c1cccc2ccccc12", "Potency": "inconclusive: 1 µM [activator, single point]"}
{"smiles": "CCOC(=O)c1cc(-c2ccccc2)n(-c2cccc(C(=O)Nc3cccc(F)c3)c2)c1C", "Potency": "inactive"}
{"smiles": "COc1cc(C2C=C(Nc3ccccc3)C(=O)N2c2ccccc2)ccc1O", "note": "(stereo not given)", "Potency": "inconclusive: 2.82 µM [inhibitor, full curve, poor fit]"}
{"smiles": "O=CNc1ccc(OP(=O)(Oc2ccccc2)Oc2ccccc2)cc1", "Potency": "inconclusive: 35.5 µM [inhibitor, single point]"}
